{"source": "PubChem BioAssay AID1259425 (University of Nebraska Medical Center, 2018)", "test": "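Seek colon cancer weak points whose silencing resembles KSR1 loss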 (primary screen)", "cell system": "HCT116 human colon cancer cells", "reagents": "siRNA pool against human genes, 50 nM siRNA", "detection": "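mRNA of six signature genes measured together by branched-DNA assay after 50 nM siRNA pool, blank removed, divided by geometric mean of two housekeeping genes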", "scale": "BNIP3L mRNA: higher = more BNIP3L transcript after knockdown", "note": "Shown is an unselected part of about 14,000 reagents. Further read-outs or replicates are left out here. The record does not give: the time to read-out."}
{"Gene": "PAPPA (GeneID 5069)", "BNIP3L mRNA, set 1": 0.0511}
{"Gene": "YWHAQ (GeneID 10971)", "BNIP3L mRNA, set 1": 0.073}
{"Gene": "CORO2A (GeneID 7464)", "BNIP3L mRNA, set 1": 0.158}
{"Gene": "HRH1 (GeneID 3269)", "BNIP3L mRNA, set 1": 0.0833}
{"Gene": "NHSL3 (GeneID 57648)", "BNIP3L mRNA, set 1": 0.112}
{"Gene": "STEAP1 (GeneID 26872)", "BNIP3L mRNA, set 1": 0.149}

In a second layout: results already given
Gene	BNIP3L mRNA, set 1
CORO2A (GeneID 7464)	0.158
HRH1 (GeneID 3269)	0.0833

The results go on.
{"Gene": "HCG9 (GeneID 10255)", "BNIP3L mRNA, set 1": 0.162}
{"Gene": "RPL30 (GeneID 6156)", "BNIP3L mRNA, set 1": 0.252}
{"Gene": "EGF (GeneID 1950)", "BNIP3L mRNA, set 1": 0.0461}
{"Gene": "MIPOL1 (GeneID 145282)", "BNIP3L mRNA, set 1": 0.0605}
{"Gene": "LPAR5 (GeneID 57121)", "BNIP3L mRNA, set 1": 0.242}
{"Gene": "GPR21 (GeneID 2844)", "BNIP3L mRNA, set 1": 0.558}
{"Gene": "KCNT1 (GeneID 57582)", "BNIP3L mRNA, set 1": 0.121}
{"Gene": "ASXL3 (GeneID 80816)", "BNIP3L mRNA, set 1": 0.0356}
{"Gene": "LAMB3 (GeneID 3914)", "BNIP3L mRNA, set 1": 0.346}
{"Gene": "ECI1 (GeneID 1632)", "BNIP3L mRNA, set 1": 0.0822}
{"Gene": "SYMPK (GeneID 8189)", "BNIP3L mRNA, set 1": 0.0686}
{"Gene": "EVI2B (GeneID 2124)", "BNIP3L mRNA, set 1": 0.108}
{"Gene": "SYNM (GeneID 23336)", "BNIP3L mRNA, set 1": 0.139}
